In patent publication US20040014151A1 (published 2004):
These are yes or no findings as the source states them, for the method shown. For some assays here: Binding seen in cells or lysates may run through a third protein. Some entries that bind do so weakly or less than the wild type. One block for each substance: values may come before it.

By UniProt entry, the sequences of proteins in these tests, tags left out. Where a name states a change or a piece, a line headed by the entry shows the natural chain unless it says otherwise. Residues count along the entry.
UniProt P07120: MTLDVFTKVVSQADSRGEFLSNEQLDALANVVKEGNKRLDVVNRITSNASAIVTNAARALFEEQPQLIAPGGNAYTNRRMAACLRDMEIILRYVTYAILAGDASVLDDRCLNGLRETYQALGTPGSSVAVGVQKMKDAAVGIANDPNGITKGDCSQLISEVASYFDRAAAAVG
native C-phycocyanin β subunit (holo-β): residues 2-173 of P07120
UniProt P07121: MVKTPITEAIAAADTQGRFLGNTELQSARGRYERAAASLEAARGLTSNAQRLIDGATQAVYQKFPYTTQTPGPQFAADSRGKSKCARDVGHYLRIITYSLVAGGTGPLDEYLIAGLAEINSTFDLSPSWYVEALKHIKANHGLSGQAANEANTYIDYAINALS
native C-phycocyanin α subunit (holo-α): residues 2-163 of P07121
UniProt P02701, residues 25-152: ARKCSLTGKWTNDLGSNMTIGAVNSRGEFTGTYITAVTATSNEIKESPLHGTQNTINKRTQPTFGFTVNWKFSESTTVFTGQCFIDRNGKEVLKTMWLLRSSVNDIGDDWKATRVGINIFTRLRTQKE
UniProt Q06881: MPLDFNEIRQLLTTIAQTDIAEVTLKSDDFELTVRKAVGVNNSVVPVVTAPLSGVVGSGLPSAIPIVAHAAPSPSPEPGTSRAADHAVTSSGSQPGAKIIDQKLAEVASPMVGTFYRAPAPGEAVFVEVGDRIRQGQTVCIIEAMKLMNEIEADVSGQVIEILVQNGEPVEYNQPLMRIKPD
UniProt P02185: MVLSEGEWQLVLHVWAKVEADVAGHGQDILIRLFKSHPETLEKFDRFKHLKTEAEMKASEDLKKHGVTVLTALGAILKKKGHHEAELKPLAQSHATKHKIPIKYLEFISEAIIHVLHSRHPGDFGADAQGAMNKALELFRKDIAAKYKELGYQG
UniProt Q00812: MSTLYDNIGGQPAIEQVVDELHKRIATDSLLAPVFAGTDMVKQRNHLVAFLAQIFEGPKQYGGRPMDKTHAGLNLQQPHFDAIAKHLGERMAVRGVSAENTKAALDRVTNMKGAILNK

Assays:
[1] = target: native C-phycocyanin β subunit (holo-β) (Anabaena sp. PCC7120) (UniProt P07120); experiment: affinity copurification from Anabaena
[2] = target: native C-phycocyanin α subunit (holo-α) (Anabaena sp. PCC7120) (UniProt P07121); experiment: comparison of copurification results
[3] = target: native C-phycocyanin α subunit (holo-α) (Anabaena sp. PCC7120) (UniProt P07121); experiment: affinity copurification from Anabaena
[4] = target: native C-phycocyanin β subunit (holo-β) (Anabaena sp. PCC7120) (UniProt P07120); experiment: IMAC copurification from Anabaena; SDS-PAGE
[5] = target: native C-phycocyanin β subunit (holo-β) (Anabaena sp. PCC7120) (UniProt P07120); experiment: IMAC copurification from Anabaena
[6] = target: native C-phycocyanin α subunit (holo-α) (Anabaena sp. PCC7120) (UniProt P07121); experiment: IMAC copurification from Anabaena
[7] = target: avidin on monomeric avidin-coated beads (UniProt P02701); experiment: monomeric avidin-coated beads; binding through biotin on BCCP114
[8] = target: native C-phycocyanin α subunit (holo-α) (Anabaena sp. PCC7120) (UniProt P07121); experiment: IMAC copurification from Anabaena; SDS-PAGE
[9] = target: avidin on monomeric avidin-coated beads (UniProt P02701); experiment: avidin-coated beads; binding through biotin on BCCP114
[10] = target: HTβ-BCCP114 subunit (6xHis-TEV-CpcB-TBN-BCCP114) (Anabaena sp. PCC7120) (UniProt P07120+Q06881); experiment: SEC-HPLC of An353
[11] = target: native C-phycocyanin α subunit (holo-α) (Anabaena sp. PCC7120) (UniProt P07121); experiment: SEC-HPLC of An353; SDS-PAGE
[12] = target: native C-phycocyanin β subunit (holo-β) (Anabaena sp. PCC7120) (UniProt P07120); experiment: Ni2+-NTA copurification from Anabaena; SDS-PAGE
[13] = target: MalE-6×His-TEV-β (maltose-binding protein-phycocyanin β subunit fusion) (Anabaena sp. PCC7120) (UniProt P07120); experiment: SEC-HPLC of An398
[14] = target: native C-phycocyanin α subunit (holo-α) (Anabaena sp. PCC7120) (UniProt P07121); experiment: Ni2+-NTA copurification from Anabaena; SDS-PAGE
[15] = target: native C-phycocyanin α subunit (holo-α) (Anabaena sp. PCC7120) (UniProt P07121); experiment: assembly into phycobilisomes against loss of α on purification
[16] = target: native C-phycocyanin β subunit (holo-β) (Anabaena sp. PCC7120) (UniProt P07120); experiment: SEC-HPLC of Ni2+-NTA-purified An349
[17] = target: native C-phycocyanin β subunit (holo-β) (Anabaena sp. PCC7120) (UniProt P07120); experiment: SEC-HPLC of Ni2+-NTA-purified An354; SDS-PAGE

Substance: HT-BTN-α (6xHis-BTN-TEV-CpcA) (from UniProt P07121 1-163)
binding [4]: binds

Substance: HT-pII-β-BCCP114 subunit (6xHis-GCN4pII-TEV-CpcB-TBN-BCCP114) (from UniProt P07120 1-173; Q06881 69-182)
binding [6]: binds

Substance: HT-pII-β-L11-α (6×His-GCN4pII-TEV-CpcB-L11-CpcA) (from UniProt P07120 1-173; P07121 2-163)
binding [8]: binds
binding [4]: binds

Substance: HT-pLI-α (6×His-GCN4pLI-TEV-CpcA) (from UniProt P07121 1-163)
binding [4]: binds

Substance: HTα-L11-β-BCCP114 (6xHis-TEV-CpcA-L11-CpcB-TBN-BCCP114) (from UniProt P07121 1-163; P07120 2-173; Q06881 69-182)
binding [6]: binds
binding [5]: binds
binding [9]: binds

Substance: HTβ-L11-α (6×His-tagged CpcB-L11-CpcA subunit-fusion phycocyanin) (from UniProt P07120 1-173; P07121 2-163)
binding [8]: binds
binding [4]: binds

Substance: MalE-6×His-TEV-α (maltose-binding protein-phycocyanin α subunit fusion) (from UniProt P07121 1-163)
binding [12]: binds

Substance: SWMb-6×His-TEV-CpcB (sperm whale myoglobin-phycocyanin β subunit fusion) (from UniProt P02185 1-154; P07120 1-173)
binding [3]: binds

Substance: apo-HTα-BCCP114 (6xHis-TEV-CpcA-TBN-BCCP114) (from UniProt P07121 1-163; Q06881 69-182)
binding [4]: binds

The next lines start with the values.

binding [1]: binds
Substance: GlbN-6×His-TEV-CpcA (cyanoglobin-phycocyanin α subunit fusion) (from UniProt Q00812 1-118; P07121 1-163)

binding [2]: binds
binding [3]: binds
Substance: GlbN-6×His-TEV-CpcB (cyanoglobin-phycocyanin β subunit fusion) (from UniProt Q00812 1-118; P07120 1-173)

binding [4]: binds
Substance: HT-pII-α (6×His-GCN4pII-TEV-CpcA) (from UniProt P07121 1-163)

binding [5]: binds
Substance: HT-pII-α-BCCP114 (6xHis-GCN4pII-TEV-CpcA-TBN-BCCP114) (from UniProt P07121 1-163; Q06881 69-182)

binding [6]: binds
binding [5]: binds
binding [7]: binds
Substance: HT-pII-α-L11-β-BCCP114 (6xHis-GCN4pII-TEV-CpcA-L11-CpcB-TBN-BCCP114) (from UniProt P07121 1-163; P07120 2-173; Q06881 69-182)

binding [8]: binds
binding [4]: binds
Substance: HTα-L11-β (6×His-tagged CpcA-L11-CpcB subunit-fusion phycocyanin) (from UniProt P07121 1-163; P07120 2-173)

binding [10]: binds
binding [11]: binds
binding [8]: binds
Substance: HTβ-BCCP114 subunit (6xHis-TEV-CpcB-TBN-BCCP114) (from UniProt P07120 1-173; Q06881 69-182)

binding [13]: binds
binding [14]: binds
binding [15]: binds
Substance: MalE-6×His-TEV-β (maltose-binding protein-phycocyanin β subunit fusion) (from UniProt P07120 1-173)

binding [1]: binds
Substance: SWMβ-6×His-TEV-CpcA (sperm whale myoglobin-phycocyanin α subunit fusion) (from UniProt P02185 1-154; P07121 1-163)

binding [16]: binds
Substance: SpA(DABC)-6×His-TEV-CpcA subunit (from UniProt P38507 87-324; P07121 1-163)

binding [17]: binds
Substance: SpA(DABC)-6×His-pII-TEV-CpcA subunit (from UniProt P38507 87-324; P07121 1-163)
